Test results: US8187802B2, “Cell lines useful for assessing modulation of autophagy” (Rutgers, The State University of New Jersey, priority 2008, dated 2012)
At least one structure is not confirmed: it was looked up by name or label, or the drawing left a doubt.

Test system: Bcl-2 expressing beclin1^+/+ and beclin1^+/− iBMK cells
Experiment: MTT assays of sensitivity to ER stress and proteasome inhibition
Type: cell-based, mouse
Conditions: MTT assay
Text: FIG. 3 illustrates the effects of autophagy defects in altering the stress response and sensitize cells to ER stress and proteasome inhibition. (A) Western blots showing levels of p62, ER chaperones, PDI and ubiquitin in Bcl-2 expressing beclin1^+/+, beclin1^+/−, atg5^+/+ and atg5^−/− iBMK cells following 5 or 7 days of metabolic stress, and 1 and 2 days of recovery. (B-D) Allelic loss of beclin1 sensitizes cells selectively to ER stress and proteasome inhibition. MTT assays showing sensitivity of Bcl-2 expressing beclin1^+/+ (Blue) and beclin1^+/− (Red) iBMK cells in response to increasing concentrations of (B) tunicamycin for 3 days, or (C) epoxomycin for 2 days, and (D) following 5 days of metabolic stress. Data are presented as mean±SD. (E) Autophagy deficiency causes mitochondrial damage. […]
Since autophagy defects indicated an elevated demand for protein folding, the sensitivity of beclin1 cells to pharmacological induction of ER stress was investigated. […] Degradation of unfolded proteins via the proteasome pathway and ameliorates ER stress and to investigate if autophagy deficiency also elevated the burden on the ubiquitin-proteasome system, the sensitivity to the proteasome inhibitor epoxomycin was assessed. […]

`CC[C@H](C)[C@H](NC(=O)[C@H]([C@@H](C)CC)N(C)C(C)=O)C(=O)N[C@H](C(=O)N[C@@H](CC(C)C)C(=O)[C@@]1(C)CO1)[C@@H](C)O` [epoxomycin] was tested, and the “sensitivity to proteasome inhibition under metabolic stress” value (autophagy-defective cells, following 5 days of metabolic stress) was “further exacerbated by metabolic stress” and the “sensitivity of beclin1^+/− cells compared to wild-type cells” value (increasing concentrations, tunicamycin 3 days, epoxomycin 2 days, normal growth conditions) was “increased sensitivity”.
